According to the supplement of paper PMC12259267, “Disruption of the KLHL37–N-Myc complex restores N-Myc degradation and arrests neuroblastoma growth in mouse models” (The Journal of Clinical Investigation, 2025):
Structures can show the parent of a compound that is named as a salt. The list shows a part of the results. Most values come without repeats; read them as rough.

test system: SK-N-BE(2); test: inhibition of N-Myc immunofluorescence signal per cell relative to control (fraction); higher = stronger N-Myc protein reduction; conditions: 1 µM; 9 h

Row | Structure (SMILES) | inhibition of N-Myc immunofluorescence signal per cell
1 | Cc1cc(Sc2nnnn2CCN(C)C)n2nc(SCc3ccc(Cl)cc3)nc2n1 | 0.214
2 | N[C@@H](Cc1ccccc1)C(=O)N1C/C(=C\c2ccc(Cl)c(Cl)c2)C(=O)/C(=C/c2ccc(Cl)c(Cl)c2)C1 | 0.217
3 | C[C@]1(c2nc3c(C(N)=O)cccc3[nH]2)CCCN1 [Veliparib] | 0.0869
4 | O=C1CC(=O)c2c(Cl)c(Cl)c(Cl)c(Cl)c21 | 0.00769
5 | COC(=O)c1ccc(N2CCN(C)CC2)c(NC(=O)c2cccc(OC)c2)c1 | -0.0679
6 | Cc1[nH]c2ccccc2c1CCNCc1ccc(/C=C/C(=O)NO)cc1 [Panobinostat] | 0.146
7 | CN(C)CCCNC(=O)c1ccc(-c2cc(O)c3ncccc3c2)cc1 | -0.263
8 | CC(C)C(C(=O)O)N1C(=O)C(=Cc2ccc(Br)cc2)SC1=S (stereo unspecified) | 0.00947
9 | c1cncc(-c2cn[nH]n2)c1 | 0.265
10 | CC(C)Oc1ccc(-c2c[nH]cc2CN(C)CCN)cc1 | -0.157
11 | CCO/N=C1\c2ccccc2-c2nc(C#N)c(C#N)nc21 | 0.00389
12 | CC1(N)CCN(c2cnc(-c3cccc(Cl)c3Cl)c(N)n2)CC1 [SHP099 (hydrochloride)] | 0.0544
13 | Nc1cc(F)ccc1NC(=O)c1ccc(CNC(=O)/C=C/c2cccnc2)cc1 [Tucidinostat] | -0.0231
14 | Cc1ncsc1-c1ccc(CNC(=O)[C@@H]2C[C@H](O)CN2C(=O)[C@@H](N)C(C)(C)C)cc1 [(S,S,S)-AHPC (hydrochloride)] | -0.031
15 | COc1cc2c(NC3CCN(C(C)C)CC3)nc(C3CCCCC3)nc2cc1OCCCN1CCCC1 | 0.169
16 | CCOc1cccc(OCCN(C)C)c1C(=O)Nc1ccc(Cl)c(C(F)(F)F)c1 | -0.0313
17 | CCC(CC)n1ccc2c(C(=O)NCc3c(C)cc(C)[nH]c3=O)cc(C#N)cc21 | 0.154
18 | O=C(O)c1cnn(-c2nc3cc(OC(F)(F)F)c(Cl)cc3[nH]2)c1 | -0.3
19 | Cc1ccc(NS(=O)(=O)c2ccc3c(c2)C2C=CCC2C(c2ccc(C(=O)O)cc2)N3)cc1C (stereo unspecified) | 0.131
20 | CCOC(=O)[C@]1(c2ccccc2)N=C(c2ccc(OC)cc2)N(Cc2ccccc2)[C@@H]1c1ccc(NCc2ccccc2)cc1 | -0.173
21 | CC(=O)Nc1ccc(C(=O)Nc2ccccc2N)cc1 [Tacedinaline] | 0.0181

Two entries from above, reformatted.

| Row | Structure (SMILES) | inhibition of N-Myc immunofluorescence signal per cell |
| --- | --- | --- |
| 5 | COC(=O)c1ccc(N2CCN(C)CC2)c(NC(=O)c2cccc(OC)c2)c1 | -0.0679 |
| 20 | CCOC(=O)[C@]1(c2ccccc2)N=C(c2ccc(OC)cc2)N(Cc2ccccc2)[C@@H]1c1ccc(NCc2ccccc2)cc1 | -0.173 |
